Here are results for eleven compounds from the supplement of paper PMC12823440, “Inhibitors supercharge kinase turnover through native proteolytic circuits” (Nature, 2025).

Structures are written as SMILES. Where a name gives a salt, the structure may show the parent alone. The list shows a part of the results. Hit calls seldom repeat between salt and free forms of one compound.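 Kinases, fused to nanoluciferase, were expressed in K562 cells; luminescence was measured every 4 h from 2 to 18 h as percent of control (DMSO = 100%, positive control = 0%). A time point is decreased if signal falls significantly (2 sigma). Hits were called by the authors by a rule that is not shown; the count of time points alone does not decide it.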

The target in this test is PRKCA (UniProt P17252). The test can be described thus: number of time points (of 5) at which kinase-Nluc abundance scored as decreased, DMSO-normalised (count); higher = more persistent destabilization. To be noted: K562; 2-18 h.
With `C[C@@H]1COCCN1c1nc(-c2cnc(N)cc2C(F)F)nc(N2[C@H](C)COC[C@@H]2C)n1` (2.5 µM), the “number of time points” value was 0.
For the compound `O=C(O)c1cc(=O)c2c(OCC(O)COc3cccc4oc(C(=O)O)cc(=O)c34)cccc2o1` [Cromolyn (sodium)] (10 µM), the “number of time points” value was 0.
As for `CCc1ccc(OCC(=O)Nc2ccc(F)c([N+](=O)[O-])c2)cc1` (10 µM), the figure is 0; as for `CC(C)S(=O)(=O)c1ccc2nccc(Nc3ccc4scnc4c3)c2c1` (10 µM), 0.
In the case of `CN1CC[C@@H](c2c(O)cc(O)c3c(=O)cc(-c4ccc(C(F)(F)F)cc4Cl)oc23)[C@@H]1CO` [Voruciclib (hydrochloride)] (10 µM), the “number of time points” value turned out to be 0.
`CC(C)=CC(=O)O[C@H]1Cc2cc3ccc(=O)oc3cc2OC1(C)C` [Decursin] (10 µM): the “number of time points” value was found to be 0.
As for `CC(C)C[C@@H](C(=O)Nc1ccn(C[C@@H](O)CO)n1)N1CC(Oc2ccccc2Cl)=CC1=O` [Dorzagliatin] (10 µM), the figure is 0; as for `CC(C)N1CCN(c2ccc(Nc3ncc4cc5n(c4n3)C3(CCCCC3)CNC5=O)nc2)CC1` [Lerociclib (dihydrochloride)] (2 µM), 0.
In the case of `CCCCCCCCCCCCCCCCOP(=O)([O-])OCC[N+](C)(C)C` [Miltefosine] (10 µM), the “number of time points” value was determined as 0.
Turning to `COCCNc1cc(NC(=O)N2CCCc3cc(CN4CCN(C)CC4=O)c(C=O)nc32)ncc1C#N` [Roblitinib] (10 µM), the “number of time points” value is 0.
As for `Cc1ccc(NC(=O)c2ccc(CN(CCN(C)C)C(=O)c3cccnc3)cc2)cc1Nc1nccc(-c2cccnc2)n1` [PDGFRα kinase inhibitor 1] (10 µM), the “number of time points” value was 0.
